Laboratory results: the supplement of paper PMC10849652
Some of the results follow.

By UniProt entry, the sequences of proteins in these tests, tags left out. Where a name states a change or a piece, a line headed by the entry shows the natural chain unless it says otherwise.
UniProt Q9NUI1: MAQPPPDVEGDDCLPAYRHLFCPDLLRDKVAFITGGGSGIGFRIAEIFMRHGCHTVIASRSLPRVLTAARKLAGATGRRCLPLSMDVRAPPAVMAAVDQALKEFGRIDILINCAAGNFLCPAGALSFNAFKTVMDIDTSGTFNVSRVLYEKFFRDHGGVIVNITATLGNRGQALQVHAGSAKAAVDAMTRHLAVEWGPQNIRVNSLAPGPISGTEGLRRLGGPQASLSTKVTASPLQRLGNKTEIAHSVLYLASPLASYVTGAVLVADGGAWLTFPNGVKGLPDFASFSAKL
UniProt O00571: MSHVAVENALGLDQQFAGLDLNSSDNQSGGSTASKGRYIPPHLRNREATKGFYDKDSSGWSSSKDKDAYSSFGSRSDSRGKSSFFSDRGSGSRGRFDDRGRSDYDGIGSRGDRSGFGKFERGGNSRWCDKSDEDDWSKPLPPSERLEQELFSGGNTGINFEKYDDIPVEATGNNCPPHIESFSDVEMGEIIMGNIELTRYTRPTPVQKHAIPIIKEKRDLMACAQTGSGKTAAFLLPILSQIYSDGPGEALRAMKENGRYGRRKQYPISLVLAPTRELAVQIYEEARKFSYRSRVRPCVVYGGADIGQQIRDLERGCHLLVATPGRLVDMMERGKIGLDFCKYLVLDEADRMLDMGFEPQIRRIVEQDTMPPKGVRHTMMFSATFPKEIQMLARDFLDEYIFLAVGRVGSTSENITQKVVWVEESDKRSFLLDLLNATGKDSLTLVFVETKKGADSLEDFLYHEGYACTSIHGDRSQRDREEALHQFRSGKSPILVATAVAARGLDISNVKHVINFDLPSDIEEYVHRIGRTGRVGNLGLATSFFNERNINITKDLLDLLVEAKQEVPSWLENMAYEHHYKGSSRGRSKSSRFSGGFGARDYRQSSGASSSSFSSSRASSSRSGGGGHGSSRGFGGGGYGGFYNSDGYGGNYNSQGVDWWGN
UniProt Q96GQ7: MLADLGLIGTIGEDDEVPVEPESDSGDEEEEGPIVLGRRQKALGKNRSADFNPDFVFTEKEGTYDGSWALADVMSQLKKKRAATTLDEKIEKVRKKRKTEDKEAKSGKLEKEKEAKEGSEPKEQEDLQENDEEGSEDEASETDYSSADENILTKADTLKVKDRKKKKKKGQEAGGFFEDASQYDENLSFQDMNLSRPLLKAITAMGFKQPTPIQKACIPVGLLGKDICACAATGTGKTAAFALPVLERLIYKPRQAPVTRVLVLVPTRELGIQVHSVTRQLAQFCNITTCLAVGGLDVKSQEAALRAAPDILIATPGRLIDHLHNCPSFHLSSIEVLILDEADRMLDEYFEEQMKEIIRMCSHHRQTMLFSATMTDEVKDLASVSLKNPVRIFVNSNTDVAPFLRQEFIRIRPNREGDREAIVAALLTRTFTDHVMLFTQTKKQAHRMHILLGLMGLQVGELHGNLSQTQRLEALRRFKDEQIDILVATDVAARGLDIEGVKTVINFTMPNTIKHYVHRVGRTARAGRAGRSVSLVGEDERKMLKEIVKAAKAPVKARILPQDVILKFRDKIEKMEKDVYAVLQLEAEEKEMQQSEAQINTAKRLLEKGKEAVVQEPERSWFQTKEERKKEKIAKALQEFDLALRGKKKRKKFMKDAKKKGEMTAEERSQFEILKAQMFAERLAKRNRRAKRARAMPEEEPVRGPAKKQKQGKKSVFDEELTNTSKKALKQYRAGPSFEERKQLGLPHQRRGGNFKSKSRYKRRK
UniProt Q7L014: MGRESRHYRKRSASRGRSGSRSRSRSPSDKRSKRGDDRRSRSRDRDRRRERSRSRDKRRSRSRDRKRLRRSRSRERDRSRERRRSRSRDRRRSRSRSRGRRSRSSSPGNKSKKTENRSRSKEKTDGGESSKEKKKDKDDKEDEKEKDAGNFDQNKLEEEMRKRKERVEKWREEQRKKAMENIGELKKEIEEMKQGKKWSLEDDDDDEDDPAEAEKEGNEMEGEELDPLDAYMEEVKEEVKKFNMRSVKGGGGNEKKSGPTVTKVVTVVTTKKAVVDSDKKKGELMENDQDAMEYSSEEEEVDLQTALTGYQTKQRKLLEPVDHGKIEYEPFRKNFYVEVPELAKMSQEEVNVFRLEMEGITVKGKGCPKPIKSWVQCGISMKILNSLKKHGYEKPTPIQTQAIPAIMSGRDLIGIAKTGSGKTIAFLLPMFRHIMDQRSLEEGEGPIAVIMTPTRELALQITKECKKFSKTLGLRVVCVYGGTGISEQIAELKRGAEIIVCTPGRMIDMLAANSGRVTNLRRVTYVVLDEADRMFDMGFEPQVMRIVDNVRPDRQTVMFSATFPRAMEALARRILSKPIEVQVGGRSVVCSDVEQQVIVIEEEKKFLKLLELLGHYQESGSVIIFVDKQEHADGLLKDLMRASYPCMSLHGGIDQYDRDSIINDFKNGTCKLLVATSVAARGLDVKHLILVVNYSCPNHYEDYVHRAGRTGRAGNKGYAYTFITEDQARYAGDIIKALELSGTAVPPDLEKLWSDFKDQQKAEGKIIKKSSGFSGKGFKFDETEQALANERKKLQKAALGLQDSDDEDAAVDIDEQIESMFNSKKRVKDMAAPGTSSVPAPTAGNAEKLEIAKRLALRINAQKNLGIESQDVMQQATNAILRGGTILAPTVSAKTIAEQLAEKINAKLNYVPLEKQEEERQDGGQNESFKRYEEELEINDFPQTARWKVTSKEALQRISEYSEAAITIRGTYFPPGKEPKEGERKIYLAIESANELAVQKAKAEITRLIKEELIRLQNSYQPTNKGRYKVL
UniProt Q8TEH3: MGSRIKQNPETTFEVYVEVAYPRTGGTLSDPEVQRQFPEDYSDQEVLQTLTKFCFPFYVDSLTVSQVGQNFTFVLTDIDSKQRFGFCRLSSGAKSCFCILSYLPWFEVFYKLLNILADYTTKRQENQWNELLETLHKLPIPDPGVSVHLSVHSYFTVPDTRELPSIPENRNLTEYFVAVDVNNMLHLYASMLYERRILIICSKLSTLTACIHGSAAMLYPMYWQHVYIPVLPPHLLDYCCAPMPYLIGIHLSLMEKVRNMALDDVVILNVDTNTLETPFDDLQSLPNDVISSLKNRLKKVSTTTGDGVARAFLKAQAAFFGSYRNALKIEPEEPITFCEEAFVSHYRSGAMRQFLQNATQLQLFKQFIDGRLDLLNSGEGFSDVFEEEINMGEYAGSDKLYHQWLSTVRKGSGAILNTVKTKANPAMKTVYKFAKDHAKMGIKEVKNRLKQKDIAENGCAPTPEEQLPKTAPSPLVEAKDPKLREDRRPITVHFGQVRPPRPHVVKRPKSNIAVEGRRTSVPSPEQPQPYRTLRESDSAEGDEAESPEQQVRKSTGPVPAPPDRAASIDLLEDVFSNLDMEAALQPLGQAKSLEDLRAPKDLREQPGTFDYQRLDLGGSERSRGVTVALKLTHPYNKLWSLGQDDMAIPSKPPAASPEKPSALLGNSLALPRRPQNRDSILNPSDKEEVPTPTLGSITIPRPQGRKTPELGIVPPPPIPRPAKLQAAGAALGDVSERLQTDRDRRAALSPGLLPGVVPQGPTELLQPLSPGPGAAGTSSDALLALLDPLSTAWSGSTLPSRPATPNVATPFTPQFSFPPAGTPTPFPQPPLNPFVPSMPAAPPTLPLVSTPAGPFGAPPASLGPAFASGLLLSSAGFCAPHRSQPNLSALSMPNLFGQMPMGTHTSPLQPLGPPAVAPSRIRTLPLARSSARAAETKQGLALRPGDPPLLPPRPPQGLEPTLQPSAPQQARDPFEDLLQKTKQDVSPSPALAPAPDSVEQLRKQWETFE
UniProt O00273: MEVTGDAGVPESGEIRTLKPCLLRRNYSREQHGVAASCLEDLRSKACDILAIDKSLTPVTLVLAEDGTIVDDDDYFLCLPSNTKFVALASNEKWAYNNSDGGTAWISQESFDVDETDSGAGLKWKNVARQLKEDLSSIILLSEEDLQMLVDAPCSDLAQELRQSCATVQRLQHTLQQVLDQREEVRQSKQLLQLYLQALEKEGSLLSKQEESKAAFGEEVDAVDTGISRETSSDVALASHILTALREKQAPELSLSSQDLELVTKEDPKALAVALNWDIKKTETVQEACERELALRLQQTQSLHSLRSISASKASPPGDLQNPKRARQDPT
UniProt Q9UMR2: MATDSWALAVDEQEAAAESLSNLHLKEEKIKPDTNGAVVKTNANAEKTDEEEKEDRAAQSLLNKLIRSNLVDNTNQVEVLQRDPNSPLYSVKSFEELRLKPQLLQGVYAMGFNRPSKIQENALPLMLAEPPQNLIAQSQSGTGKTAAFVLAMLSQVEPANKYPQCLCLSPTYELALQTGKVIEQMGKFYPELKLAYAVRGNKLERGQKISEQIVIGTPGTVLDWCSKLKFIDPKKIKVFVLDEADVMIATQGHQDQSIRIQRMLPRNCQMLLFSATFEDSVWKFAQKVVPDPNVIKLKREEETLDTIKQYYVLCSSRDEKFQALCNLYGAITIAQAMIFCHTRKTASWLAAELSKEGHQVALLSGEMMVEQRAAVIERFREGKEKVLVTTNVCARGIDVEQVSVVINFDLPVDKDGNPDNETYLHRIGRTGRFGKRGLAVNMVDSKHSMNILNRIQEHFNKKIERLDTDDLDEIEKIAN
UniProt Q16643: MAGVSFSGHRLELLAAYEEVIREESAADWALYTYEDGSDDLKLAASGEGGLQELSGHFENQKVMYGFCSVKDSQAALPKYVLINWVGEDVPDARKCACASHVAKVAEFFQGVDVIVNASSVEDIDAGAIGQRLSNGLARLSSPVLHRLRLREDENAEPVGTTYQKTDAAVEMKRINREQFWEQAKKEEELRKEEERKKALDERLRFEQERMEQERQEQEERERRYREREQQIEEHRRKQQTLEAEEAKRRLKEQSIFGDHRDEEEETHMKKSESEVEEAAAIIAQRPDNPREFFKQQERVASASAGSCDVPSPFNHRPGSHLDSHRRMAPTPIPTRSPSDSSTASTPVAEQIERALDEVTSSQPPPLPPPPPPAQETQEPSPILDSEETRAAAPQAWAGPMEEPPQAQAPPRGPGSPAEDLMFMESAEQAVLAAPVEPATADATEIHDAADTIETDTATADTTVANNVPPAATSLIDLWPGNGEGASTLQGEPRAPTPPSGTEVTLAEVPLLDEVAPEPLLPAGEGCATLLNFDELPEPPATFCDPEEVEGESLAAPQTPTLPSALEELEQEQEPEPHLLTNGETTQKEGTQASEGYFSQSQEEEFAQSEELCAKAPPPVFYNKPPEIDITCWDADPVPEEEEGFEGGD
UniProt Q9H1C7: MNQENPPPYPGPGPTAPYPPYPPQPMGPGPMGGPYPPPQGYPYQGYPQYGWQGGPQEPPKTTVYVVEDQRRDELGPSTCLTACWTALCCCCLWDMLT
UniProt Q8NEL9: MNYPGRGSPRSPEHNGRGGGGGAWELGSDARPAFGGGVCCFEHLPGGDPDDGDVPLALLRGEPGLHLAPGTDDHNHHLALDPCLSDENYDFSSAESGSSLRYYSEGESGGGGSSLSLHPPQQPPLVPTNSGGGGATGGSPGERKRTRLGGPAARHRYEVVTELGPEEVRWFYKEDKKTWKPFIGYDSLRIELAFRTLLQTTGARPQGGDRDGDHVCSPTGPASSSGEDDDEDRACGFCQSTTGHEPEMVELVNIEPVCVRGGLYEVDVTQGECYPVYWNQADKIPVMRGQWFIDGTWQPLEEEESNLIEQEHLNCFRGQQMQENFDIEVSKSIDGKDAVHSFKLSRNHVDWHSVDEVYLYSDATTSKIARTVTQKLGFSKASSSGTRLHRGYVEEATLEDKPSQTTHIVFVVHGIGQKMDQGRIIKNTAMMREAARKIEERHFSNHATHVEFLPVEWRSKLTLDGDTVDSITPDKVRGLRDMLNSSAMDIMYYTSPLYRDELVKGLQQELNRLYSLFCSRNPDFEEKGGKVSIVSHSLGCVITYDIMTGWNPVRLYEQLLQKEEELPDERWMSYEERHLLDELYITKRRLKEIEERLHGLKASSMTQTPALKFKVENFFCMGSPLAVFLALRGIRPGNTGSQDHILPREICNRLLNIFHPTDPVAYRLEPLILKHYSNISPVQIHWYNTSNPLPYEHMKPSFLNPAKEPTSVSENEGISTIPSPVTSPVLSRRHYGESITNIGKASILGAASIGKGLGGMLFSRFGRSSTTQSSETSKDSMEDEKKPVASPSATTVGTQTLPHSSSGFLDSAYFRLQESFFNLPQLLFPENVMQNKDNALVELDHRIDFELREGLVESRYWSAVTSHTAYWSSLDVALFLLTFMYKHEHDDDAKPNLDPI
UniProt Q8IWE4: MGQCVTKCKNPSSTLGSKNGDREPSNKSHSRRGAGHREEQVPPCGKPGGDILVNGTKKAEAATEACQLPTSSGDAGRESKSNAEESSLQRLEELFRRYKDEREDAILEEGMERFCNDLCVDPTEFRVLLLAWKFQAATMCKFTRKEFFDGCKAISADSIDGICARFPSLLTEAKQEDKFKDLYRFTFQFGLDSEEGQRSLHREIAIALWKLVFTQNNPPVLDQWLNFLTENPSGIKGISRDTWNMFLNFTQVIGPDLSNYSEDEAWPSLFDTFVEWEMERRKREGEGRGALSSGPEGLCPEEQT

What was measured:
Experiment in all cases: log2 fold change, soluble protein after heating vs DMSO (PISA); higher = thermal stabilisation; K562 lysate, 10 uM; active = over 0.2 and 3.5 SD of the protein, either way, in both replicates (recomputed)
nilotinib = compound: Cc1cn(-c2cc(NC(=O)c3ccc(C)c(Nc4nccc(-c5cccnc5)n4)c3)cc(C(F)(F)F)c2)cn1 [nilotinib]
In short: (§1)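 Quantification was by TMTpro 16plex LC-MS/MS with equalised channel sums, applied to the supernatant after 21,000xg for 90 min. Samples were crude K562 extract at 1 mg/mL protein in PBS pH 7.4 with 1 mM MgCl2, treated with 10 μM compound for 30 min, heated for 3 min across 48°C-58°C, pooled and brought to 0.5% NP-40 at 4°C. Values are log-two fold changes in thermal stability relative to solvent controls, from duplicates.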

[1] = compound: Cc1nc(Nc2n[nH]c3c2CN(C(=O)N[C@H](CN(C)C)c2ccccc2)C3(C)C)c2sccc2n1
In short: as §1

dasatinib = compound: Cc1nc(Nc2ncc(C(=O)Nc3c(C)cccc3Cl)s2)cc(N2CCN(CCO)CC2)n1 [dasatinib]
In short: as §1

[2] = compound: Cc1ncc(-c2ccnc(Nc3ccc(S(C)(=O)=O)cc3)n2)n1C(C)C
In short: as §1

[3] = compound: Cn1cc(-c2ccc3c(c2)CCN3C(=O)Cc2cccc(C(F)(F)F)c2)c2c(N)ncnc21
In short: as §1

quisinostat = compound: Cn1cc(CNCC2CCN(c3ncc(C(=O)NO)cn3)CC2)c2ccccc21 [quisinostat]
In short: as §1

tipifarnib = compound: Cn1cncc1[C@@](N)(c1ccc(Cl)cc1)c1ccc2c(c1)c(-c1cccc(Cl)c1)cc(=O)n2C [tipifarnib]
In short: as §1

[4] = compound: NC(=O)Nc1cc(-c2cccc(F)c2)sc1C(=O)N[C@H]1CCCNC1
In short: as §1

[5] = compound: NC(=O)c1cnc(N[C@@H]2CCCC[C@@H]2N)nc1Nc1cccc(-n2nccn2)c1
In short: as §1

[6] = compound: NC1(c2ccc(-c3nc4ccn5c(=O)[nH]nc5c4cc3-c3ccccc3)cc2)CCC1
In short: as §1

[7] = compound: NCC(=O)Nc1ccc(-n2nc(C(F)(F)F)cc2-c2ccc3c(ccc4ccccc43)c2)cc1
In short: as §1

vorinostat = compound: O=C(CCCCCCC(=O)Nc1ccccc1)NO [vorinostat]
In short: as §1

silmitasertib = compound: O=C(O)c1ccc2c(c1)nc(Nc1cccc(Cl)c1)c1ccncc12 [silmitasertib]
In short: as §1

[8] = compound: O=C1NC(=O)C(c2cnc3ccccn23)=C1c1cn2c3c(cc(F)cc13)CN(C(=O)N1CCCCC1)CC2
In short: as §1

entospletinib = compound: c1cn2cc(-c3ccc4cn[nH]c4c3)nc(Nc3ccc(N4CCOCC4)cc3)c2n1 [entospletinib]
In short: as §1

Measured: log2 fold change

DECR2 (UniProt Q9NUI1)
inactive: nilotinib -0.075 | [1] -0.048 | dasatinib 0.049 | [2] 0.05 | [3] 0.033 | quisinostat 0.035 | tipifarnib 0.132 | [4] -0.046 | [5] 0.076 | [6] -0.014 | [7] -0.038 | vorinostat 0.168 | silmitasertib -0.021 | [8] 0.067 | entospletinib -0.012

DDX3X (UniProt O00571)
inactive: nilotinib -0.028 | [1] -0.019 | dasatinib -0.023 | [2] -0.004 | [3] 0.086 | quisinostat -0.167 | tipifarnib 0.027 | [4] 0.075 | [5] 0.073 | [6] -0.053 | [7] 0.047 | vorinostat -0.2 | silmitasertib 0.092 | [8] 0 | entospletinib -0.023

DDX27 (UniProt Q96GQ7)
inactive: nilotinib -0.007 | [1] 0.001 | dasatinib 0.004 | [2] -0.004 | [3] 0.013 | quisinostat -0.007 | tipifarnib 0.025 | [4] -0.006 | [5] 0 | [6] -0.024 | [7] -0.006 | vorinostat 0.025 | silmitasertib 0.015 | [8] 0.016 | entospletinib 0.011

DDX46 (UniProt Q7L014)
inactive: nilotinib -0.01 | [1] 0.005 | dasatinib -0.04 | [2] 0.012 | [3] -0.01 | quisinostat -0.051 | tipifarnib 0.003 | [4] -0.008 | [5] 0.011 | [6] 0.027 | [7] 0.013 | vorinostat -0.151 | silmitasertib 0.028 | [8] 0.007 | entospletinib 0.02

Random excerpt: 2 entries already listed.
DDX27 (UniProt Q96GQ7)
inactive: nilotinib -0.007 | [1] 0.001 | dasatinib 0.004 | [2] -0.004 | [3] 0.013 | quisinostat -0.007 | tipifarnib 0.025 | [4] -0.006 | [5] 0 | [6] -0.024 | [7] -0.006 | vorinostat 0.025 | silmitasertib 0.015 | [8] 0.016 | entospletinib 0.011

DDX46 (UniProt Q7L014)
inactive: nilotinib -0.01 | [1] 0.005 | dasatinib -0.04 | [2] 0.012 | [3] -0.01 | quisinostat -0.051 | tipifarnib 0.003 | [4] -0.008 | [5] 0.011 | [6] 0.027 | [7] 0.013 | vorinostat -0.151 | silmitasertib 0.028 | [8] 0.007 | entospletinib 0.02

Going on with the list.

DENND1A isoform 6 (UniProt Q8TEH3)
inactive: nilotinib -0.111 | [1] 0.015 | dasatinib -0.135 | [2] -0.01 | [3] 0.024 | quisinostat -0.11 | tipifarnib 0.065 | [4] 0.021 | [5] -0.08 | [6] -0.074 | [7] -0.321 | vorinostat -0.491 | silmitasertib 0.031 | [8] -0.094 | entospletinib -0.052

DFFA (UniProt O00273)
inactive: nilotinib 0.03 | [1] -0.014 | dasatinib -0.001 | [2] 0.044 | [3] -0.019 | quisinostat 0.056 | tipifarnib 0.025 | [4] -0.041 | [5] -0.015 | [6] -0.011 | [7] -0.004 | vorinostat 0.033 | silmitasertib 0.006 | [8] 0.016 | entospletinib 0.022

DDX19B (UniProt Q9UMR2)
inactive: nilotinib -0.004 | [1] 0.004 | dasatinib -0.014 | [2] -0.002 | [3] -0.008 | quisinostat -0.071 | tipifarnib -0.014 | [4] 0.02 | [5] 0.002 | [6] 0.006 | [7] 0.014 | vorinostat -0.132 | silmitasertib 0.031 | [8] -0.019 | entospletinib 0.01

DDX1 (UniProt Q92499)
inactive: nilotinib 0.006 | [1] -0.011 | dasatinib -0.019 | [2] 0 | [3] 0.018 | quisinostat -0.022 | tipifarnib 0.004 | [4] -0.023 | [5] 0.015 | [6] 0.002 | [7] -0.017 | vorinostat -0.092 | silmitasertib 0.008 | [8] 0 | entospletinib -0.01

DCAF6 isoform 3 (UniProt Q58WW2)
inactive: nilotinib 0.003 | [1] 0.015 | dasatinib -0.013 | [2] -0.003 | [3] 0.02 | quisinostat 0.007 | tipifarnib 0.037 | [4] -0.012 | [5] -0.006 | [6] -0.058 | [7] -0.054 | vorinostat 0.043 | silmitasertib 0.047 | [8] -0.021 | entospletinib -0.002

DBN1 (UniProt Q16643)
inactive: nilotinib -0.018 | [1] 0.035 | dasatinib 0.028 | [2] 0.011 | [3] -0.016 | quisinostat -0.011 | tipifarnib -0.008 | [4] -0.021 | [5] -0.002 | [6] -0.007 | [7] 0.021 | vorinostat -0.099 | silmitasertib 0.02 | [8] 0.012 | entospletinib -0.01

DDX49 (UniProt Q9Y6V7)
inactive: nilotinib 0.044 | [1] -0.058 | dasatinib -0.027 | [2] 0.043 | [3] 0.175 | quisinostat -0.022 | tipifarnib -0.04 | [4] 0.064 | [5] 0.027 | [6] -0.006 | [7] -0.005 | vorinostat -0.04 | silmitasertib 0.005 | [8] -0.006 | entospletinib 0.01

CYSTM1 (UniProt Q9H1C7)
inactive: nilotinib -0.055 | [1] 0.109 | dasatinib 0.11 | [2] 0.007 | [3] -0.045 | quisinostat -0.197 | tipifarnib -0.06 | [4] -0.053 | [5] 0.069 | [6] -0.037 | [7] -0.317 | vorinostat 0.093 | silmitasertib -0.055 | [8] -0.135 | entospletinib -0.082

DDHD1 (UniProt Q8NEL9)
inactive: nilotinib 0.012 | [1] 0.018 | dasatinib 0.022 | [2] 0.026 | [3] 0.036 | quisinostat -0.129 | tipifarnib -0.02 | [4] -0.095 | [5] -0.021 | [6] -0.039 | [7] -0.127 | vorinostat -0.029 | silmitasertib 0.026 | [8] 0.035 | entospletinib -0.025

DCUN1D3 (UniProt Q8IWE4)
inactive: nilotinib -0.012 | [1] 0.07 | dasatinib -0.143 | [2] -0.031 | [3] -0.104 | tipifarnib 0.029 | entospletinib 0.106

DENND4B (UniProt O75064)
inactive: nilotinib -0.049 | [1] 0.007 | dasatinib -0.074 | [2] 0.038 | [3] -0.013 | quisinostat -0.058 | tipifarnib 0.074 | [4] 0.042 | [5] 0.009 | [6] 0.027 | [7] 0.011 | vorinostat -0.017 | silmitasertib 0.022 | [8] -0.022 | entospletinib -0.019

DDR1 isoform 5 (UniProt Q08345)
inactive: nilotinib 0.036 | [1] 0.013 | dasatinib 0.083 | [2] -0.216 | [3] 0.103 | quisinostat 0.045 | tipifarnib -0.012 | [4] -0.054 | [8] -0.026 | entospletinib -0.153
